PubChem BioAssay AID743454, Peter MacCallum Cancer Centre – 2014

- Test: 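Search for knock-downs that restore vorinostat killing in resistant colon cancer cells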 (primary screen)
- Cell system: human HCT116-VR colon cancer cells, selected for vorinostat resistance
- Reagents: siRNA pool against human genes, 40 nM siRNA pool
- Duration: vorinostat for 24 h, read-out about 72 h after transfection
- Conditions: vorinostat at 2.5 µM final
- Measured: 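Cell viability by CellTiter-Fluor and caspase 3/7 activity by luminescence, each scaled to mock wells per plate, duplicates averaged, then robust z-scored over all plates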
- Direction: viability robust z-score: higher = more viable cells than screen typical; caspase robust z-score: higher = more caspase 3/7 activity than screen typical
- Call rule: 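a knock-down is a hit when classed RV1 or RV2 for lowered viability, or CA1 or CA2 for caspase activation; those lethal without drug were dropped; hits were retested singly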
The whole screen tested about 18,000 reagents; below is a part drawn at random. In the full data, 450 (2.5%) were called active. 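Single biological run; no consistent viability z cut-off exists, so the class columns, not z-scores, define the calls.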

target	viability hit class	caspase hit class	viability robust z-score	caspase robust z-score	Call
KIR2DL4	no change	no change	0.61	3.04	inactive
MAGI2	no change	no change	0.68	-0.8	inactive
EVI2A (ecotropic viral integration site 2A)	no change	no change	1.32	-0.34	inactive
HNRNPCL1 (heterogeneous nuclear ribonucleoprotein C like 1)	no change	no change	1.2	0.06	inactive
RDH13 (retinol dehydrogenase 13)	no change	no change	1.48	-0.28	inactive
CHCHD2 (coiled-coil-helix-coiled-coil-helix domain containing 2)	no change	no change	0.98	0.19	inactive
EIF2B5 (eukaryotic translation initiation factor 2B subunit epsilon)	RV2 (reduced viability)	no change	-3.2	-0.56	active
N4BP2L2 (NEDD4 binding protein 2 like 2)	no change	no change	-0.88	0.26	inactive
CDY1 (chromodomain Y-linked 1)	no change	no change	-2.23	2.73	inactive
SLC8A3	no change	no change	-0.12	-0.68	inactive
KIAA0586	no change	no change	-0.28	1	inactive
NOL4 (nucleolar protein 4)	no change	no change	0.56	0.92	inactive
SH3PXD2A (SH3 and PX domains 2A)	no change	no change	-0.46	0.59	inactive
SPOPL (speckle type BTB/POZ protein like)	no change	no change	0.15	0.34	inactive
MYH13 (myosin heavy chain 13)	no change	no change	-0.57	-0.27	inactive
FCRL3 (Fc receptor like 3)	no change	no change	1.92	0.29	inactive
YPEL1 (yippee like 1)	no change	no change	-0.96	-0.32	inactive
RPAP3 (RNA polymerase II associated protein 3)	no change	no change	-0.82	-0.33	inactive
GAS2L3 (growth arrest specific 2 like 3)	no change	no change	2.11	0.3	inactive
GADD45A (growth arrest and DNA damage inducible alpha)	no change	no change	0.99	-1.11	inactive
TCEAL3 (transcription elongation factor A like 3)	no change	no change	0.34	0.37	inactive
SELENOW (selenoprotein W)	no change	no change	-0.51	0.05	inactive
NLRC5 (NLR family CARD domain containing 5)	no change	no change	0	0.09	inactive
BPIFA2 (BPI fold containing family A member 2)	no change	no change	0.22	-1.16	inactive
TMED6 (transmembrane p24 trafficking protein 6)	no change	no change	-1.34	-0.3	inactive
SPATA17 (spermatogenesis associated 17)	no change	no change	1.84	0.25	inactive
CD1A (CD1a molecule)	no change	no change	0.07	-0.8	inactive
SRCIN1 (SRC kinase signaling inhibitor 1)	no change	no change	-0.26	-0.07	inactive
WDR82 (WD repeat domain 82)	no change	no change	0.74	-0.72	inactive
SLC5A8	no change	no change	0.06	-1.16	inactive
TMC2 (transmembrane channel like 2)	no change	no change	-1.07	-0.3	inactive
RAB11FIP2 (RAB11 family interacting protein 2)	no change	no change	-1.23	-0.22	inactive
ENG (endoglin)	no change	no change	0.66	-0.21	inactive
TBX15 (T-box transcription factor 15)	no change	no change	0.24	3.18	inactive
PDCD5 (programmed cell death 5)	no change	no change	-1.92	0.98	inactive
KCNE5	no change	no change	-0.98	1.42	inactive
CCN1 (cellular communication network factor 1)	no change	no change	-0.24	-0.85	inactive
EXOSC9 (exosome component 9)	no change	no change	-1.75	-1.19	inactive
RBBP8 (RB binding protein 8, endonuclease)	no change	CA1 (caspase activation)	-0.12	6.83	active
NOS1AP (nitric oxide synthase 1 adaptor protein)	no change	no change	-0.32	-0.02	inactive
SLC2A6	no change	no change	0.96	4.12	inactive
OLAH (oleoyl-ACP hydrolase)	no change	no change	-1.86	-0.73	inactive
FGF17 (fibroblast growth factor 17)	no change	no change	0.3	-0.85	inactive
NPBWR2 (neuropeptides B and W receptor 2)	no change	CA2 (caspase activation)	0.11	5.77	active
CSTF3 (cleavage stimulation factor subunit 3)	no change	no change	-0.54	0.52	inactive
FBXO21 (F-box protein 21)	no change	no change	-0.1	0.7	inactive
ZNF524 (zinc finger protein 524)	no change	no change	-0.2	-0.54	inactive
C1QTNF2 (C1q and TNF related 2)	no change	no change	-0.44	1.8	inactive
SP3 (Sp3 transcription factor)	no change	no change	0.24	-0.76	inactive
SPTBN4 (spectrin beta, non-erythrocytic 4)	no change	no change	-0.11	2.68	inactive
RUNDC3B (RUN domain containing 3B)	no change	no change	-0.28	-0.34	inactive
ACAA1 (acetyl-CoA acyltransferase 1)	no change	no change	-0.1	-0.3	inactive
ZNF771 (zinc finger protein 771)	no change	no change	1.42	4.62	inactive
PDE4C (phosphodiesterase 4C)	no change	no change	-0.5	0.44	inactive
PLPPR3 (phospholipid phosphatase related 3)	no change	no change	0.39	-0.52	inactive
TRIP12 (thyroid hormone receptor interactor 12)	no change	no change	-0.13	0.62	inactive
PARP3 (poly(ADP-ribose) polymerase family member 3)	no change	no change	-0.57	0.08	inactive

8 of these entries, set out differently:
{"target":"KIR2DL4","viability hit class":"no change","caspase hit class":"no change","viability robust z-score":0.61,"caspase robust z-score":3.04,"Call":"inactive"}
{"target":"MAGI2","viability hit class":"no change","caspase hit class":"no change","viability robust z-score":0.68,"caspase robust z-score":-0.8,"Call":"inactive"}
{"target":"EVI2A (ecotropic viral integration site 2A)","viability hit class":"no change","caspase hit class":"no change","viability robust z-score":1.32,"caspase robust z-score":-0.34,"Call":"inactive"}
{"target":"HNRNPCL1 (heterogeneous nuclear ribonucleoprotein C like 1)","viability hit class":"no change","caspase hit class":"no change","viability robust z-score":1.2,"caspase robust z-score":0.06,"Call":"inactive"}
{"target":"RDH13 (retinol dehydrogenase 13)","viability hit class":"no change","caspase hit class":"no change","viability robust z-score":1.48,"caspase robust z-score":-0.28,"Call":"inactive"}
{"target":"CHCHD2 (coiled-coil-helix-coiled-coil-helix domain containing 2)","viability hit class":"no change","caspase hit class":"no change","viability robust z-score":0.98,"caspase robust z-score":0.19,"Call":"inactive"}
{"target":"EIF2B5 (eukaryotic translation initiation factor 2B subunit epsilon)","viability hit class":"RV2 (reduced viability)","caspase hit class":"no change","viability robust z-score":-3.2,"caspase robust z-score":-0.56,"Call":"active"}
{"target":"N4BP2L2 (NEDD4 binding protein 2 like 2)","viability hit class":"no change","caspase hit class":"no change","viability robust z-score":-0.88,"caspase robust z-score":0.26,"Call":"inactive"}
